{
  "source": "paper PMC7858072",
  "system": "MBP-FhtR (apo) (Enterococcus faecalis OG1RF)",
  "test": "EMSA",
  "conditions": "EMSA: 20 mM Tris-HCl pH 8, 50 mM KCl, 0.2 mM MgCl2, 1 mM EDTA, 0.2 mM DTT, 5% glycerol, 7% PAGE in TBE, GelRed, temperature not stated, recombinant protein, residues 1-201, protein details: N-terminal MBP (pMAL-c4X), probe letters rebuilt from the primers and the genome",
  "note": "For at least one entry, the source does not settle the construct or the ends of the probe. Weaker means in comparison with the reference protein, sequence or condition of that experiment.",
  "data": [
    {"sequence": "CCAGCGAAAAACAGTGGATGACGATGTCAAAAAATTTATTCAATTTATGCTACATGGCGTTTTGAAAAGTCACAAATAAAAAATAGAGAAGCCCTGTTGAAAAACAGACTTCTCTATTTTTTTGTGAAATTCACTTATCAATCGATAAATAATTATTGATTTATCGATTGATAAGTGATATAGTTTATTTCGAAAAGAAGAAAGAGGTGAACCATTCATGTTTTTAGGATTTAATGAAATGAAGTATTCAAAAGGACGGTACGTCCTTGTAGTCTTAGTAATGGTCTTGATTGCTTGGTTAATTTTTATTTTGTCAGGTTTAGCG (double strand) [PhrtBA WT]", "values": [
      {"measurement": "binding result", "setting": "hemin, intermediate amounts (0.1 and 1 uM), C1 and C2 both seen, 0.25 pmol DNA", "result": "binds more weakly"},
      {"measurement": "binding result", "setting": "no hemin, two complexes C1 and C2, 0.25 pmol …", "result": "binds"}
    ]}
  ]
}
